# Primary screen of a compound library

The chains behind the UniProt entries cited, without tags or fusion partners.
UniProt P9WPC5, whole entry: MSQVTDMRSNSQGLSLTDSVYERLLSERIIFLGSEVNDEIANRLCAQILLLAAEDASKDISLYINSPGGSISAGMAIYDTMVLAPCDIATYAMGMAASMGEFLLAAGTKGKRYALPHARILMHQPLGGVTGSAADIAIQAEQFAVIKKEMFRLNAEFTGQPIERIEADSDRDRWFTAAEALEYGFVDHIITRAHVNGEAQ
UniProt P9WPC3, whole entry partner: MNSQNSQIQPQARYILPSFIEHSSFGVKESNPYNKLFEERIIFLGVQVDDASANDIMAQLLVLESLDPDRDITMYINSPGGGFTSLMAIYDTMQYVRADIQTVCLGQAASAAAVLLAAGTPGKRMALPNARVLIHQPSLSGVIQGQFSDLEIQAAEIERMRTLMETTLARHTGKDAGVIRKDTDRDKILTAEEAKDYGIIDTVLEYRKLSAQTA
UniProt I6X8D2, whole entry: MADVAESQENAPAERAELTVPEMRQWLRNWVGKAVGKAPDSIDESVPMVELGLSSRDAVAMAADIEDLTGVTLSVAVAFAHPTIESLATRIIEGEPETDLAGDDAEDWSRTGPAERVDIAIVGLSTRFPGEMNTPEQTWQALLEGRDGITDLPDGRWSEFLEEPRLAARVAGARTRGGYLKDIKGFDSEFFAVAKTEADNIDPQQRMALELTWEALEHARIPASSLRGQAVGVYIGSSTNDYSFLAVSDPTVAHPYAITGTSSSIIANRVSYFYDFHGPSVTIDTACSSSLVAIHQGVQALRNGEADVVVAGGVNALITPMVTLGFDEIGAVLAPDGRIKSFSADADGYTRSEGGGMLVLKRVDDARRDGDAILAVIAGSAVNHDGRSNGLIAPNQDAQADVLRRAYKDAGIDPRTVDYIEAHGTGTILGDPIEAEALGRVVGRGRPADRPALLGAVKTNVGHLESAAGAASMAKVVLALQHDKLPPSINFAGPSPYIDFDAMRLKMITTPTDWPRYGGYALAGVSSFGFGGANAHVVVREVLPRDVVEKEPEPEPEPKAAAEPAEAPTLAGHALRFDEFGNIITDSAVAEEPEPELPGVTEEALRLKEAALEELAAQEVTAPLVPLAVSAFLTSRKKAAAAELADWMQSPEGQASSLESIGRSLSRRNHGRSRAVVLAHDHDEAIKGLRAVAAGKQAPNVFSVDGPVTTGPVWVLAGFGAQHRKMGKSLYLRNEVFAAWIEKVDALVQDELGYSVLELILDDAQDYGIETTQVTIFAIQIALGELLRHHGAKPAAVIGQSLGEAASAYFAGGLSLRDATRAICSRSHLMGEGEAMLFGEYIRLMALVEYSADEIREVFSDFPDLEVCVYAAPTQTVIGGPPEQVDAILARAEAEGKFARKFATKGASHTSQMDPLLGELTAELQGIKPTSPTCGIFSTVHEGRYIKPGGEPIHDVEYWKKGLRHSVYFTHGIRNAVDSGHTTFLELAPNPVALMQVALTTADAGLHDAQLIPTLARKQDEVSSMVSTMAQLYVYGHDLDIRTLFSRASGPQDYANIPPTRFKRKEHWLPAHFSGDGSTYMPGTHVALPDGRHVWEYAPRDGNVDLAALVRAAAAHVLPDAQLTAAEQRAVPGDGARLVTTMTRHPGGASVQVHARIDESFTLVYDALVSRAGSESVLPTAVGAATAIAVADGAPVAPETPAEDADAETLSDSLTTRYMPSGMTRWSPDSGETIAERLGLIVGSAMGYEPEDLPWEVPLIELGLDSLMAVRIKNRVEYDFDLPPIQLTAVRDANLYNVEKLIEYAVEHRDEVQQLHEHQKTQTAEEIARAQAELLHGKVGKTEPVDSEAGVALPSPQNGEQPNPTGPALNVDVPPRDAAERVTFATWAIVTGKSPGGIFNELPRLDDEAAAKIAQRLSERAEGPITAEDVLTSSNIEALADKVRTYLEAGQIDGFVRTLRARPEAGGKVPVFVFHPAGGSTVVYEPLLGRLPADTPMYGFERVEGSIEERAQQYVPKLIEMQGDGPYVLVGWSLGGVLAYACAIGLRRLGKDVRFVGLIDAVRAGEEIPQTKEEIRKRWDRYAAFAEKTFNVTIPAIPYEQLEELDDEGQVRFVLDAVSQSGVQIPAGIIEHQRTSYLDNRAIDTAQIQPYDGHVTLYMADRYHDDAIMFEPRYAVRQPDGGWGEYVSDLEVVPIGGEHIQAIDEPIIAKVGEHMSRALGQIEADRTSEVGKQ

A: 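ClpP1P2, Mycobacterium tuberculosis (UniProt P9WPC5 and UniProt P9WPC3). Protease assay of ClpP1P2, read by the AMC dye that it sets free. Tested at 50 µM. Direction is inferred from only a few compounds that gave an IC50; most scored high, so higher reads as stronger inhibition. Most other retested compounds had strongly negative values. Of about 69,000 compounds tested this way, about 10 (0.015%) reached 50% or more in at least one test.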
B: 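Polyketide synthase Pks13, Mycobacterium tuberculosis (UniProt I6X8D2). Enzyme assay of the thioesterase domain of polyketide synthase 13; the read-out is not stated. Compounds at 30 µM. The record gives no direction; the compounds picked for IC50 retests had high values, so higher reads as stronger inhibition. Of about 67,000 compounds tested this way, about 300 (0.46%) reached 50% or more in at least one test.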

Values are the deposited “Percent Effect”, in %.
The controls that fix the scale are not given in the record; negative values are as filed.
The compounds are a random part of those screened.

structure	A	B
COc1ccc(CN2CCCC2)cc1Oc1ccc(NC(C)=O)cc1	-15.09	-39.42
Cc1cccc(CO[C@H]2CO[C@@]3(CCN(S(=O)(=O)N(C)C)C3)C2)n1	-1.914	-8.028
COC(=O)[C@H](CCSC)NC(=O)Cc1c(C)nn(-c2ccccc2)c1C	-12.21	5.347
COc1cc(-c2cc(OC)c(OC)c(OC)c2)ncn1	9.082	8.377
COCCn1ccnc1CN1CCc2[nH]cnc2C1c1cccc(O)c1 (configuration not stated)	-8.346	-4.059
Cc1cnn(C2CCCN(C(=O)c3cnc4ccccc4n3)C2)c1 (configuration not stated)	0.919	-9.886
Cc1ncsc1-c1nc(Cc2cccs2)nn1C1CCN(C)CC1	-6.464	-7.339
CC(=O)N1CCC(c2nc3ccc(-c4cccc(F)c4)cn3n2)CC1	6.755	-11.07
CC(=O)N(CCc1nc(-c2cc(C(N)=O)co2)cs1)C(C)C	-10.02	-9.442
NC(=O)Cn1cc(NC(=O)N2CCCCCC2)cn1	-35.24	-13.98
Cc1cccc2c1nc1n2[C@@H](CNC(=O)C2CCOCC2)COC1	-6.072	-33.19
CC(C)c1ccn(C2(C(=O)O)CCN(c3cc(C(N)=O)ccn3)CC2)n1	-12.47	18.07
CCc1noc(CN2CCN(c3nccs3)CC2)n1	4.096	-8.536
CCN(Cc1nc(C)no1)C(=O)C1CC(=O)N(Cc2ccccn2)C1 (configuration not stated)	-5.697	-26.64
COCCN(Cc1sccc1C)C(=O)C1CCCN(C(N)=O)C1 (configuration not stated)	-3.432	-4.91
O=C(NCc1ccon1)c1c(F)cc(Br)cc1F	-12.31	-32.49
Cc1nc(C)c2c(n1)CCN(Cc1ccco1)CC2	-0.4476	-21.38
COCCNC(=O)Cn1c(-c2cccc(Cl)c2)nc(C)c(CCO)c1=O	5.221	-16.13
CC1CN(c2ccc(CNC(=O)c3ccn(C)c(=O)c3)cn2)CCO1 (configuration not stated)	1.586	-4.194
Cc1cncc(C2CCCN2CC(N)=O)n1 (configuration not stated)	-13.33	12.77
CC(C)n1cnnc1CN(C)CC1CCOC1 (configuration not stated)	0.01071	-18.19
Cc1nc(C2(NCC(=O)NCCc3cccs3)CCCC2)no1	-0.5355	-37.66
CN(C)C1CCC2(CCN(Cc3nccn3C)CC2)c2ccccc21 (configuration not stated)	-15.84	3.329
CN(Cc1cc[nH]n1)C(=O)c1cn(Cc2c(F)cccc2F)nn1	8.149	-15.87
Cc1n[nH]cc1CNCc1cccc(OCC(F)(F)F)c1	-8.671	-3.52
COC(=O)C(c1cc(F)ccc1F)N(C)C(=O)c1cnccn1 (configuration not stated)	10.64	-10.7
O=C1CCCc2[nH]c(=O)c(C(=O)N3CCc4ccccc4C3)cc21	-4.823	-12.62
COC(=O)c1cccc(C(=O)N2CCCCC2CCn2ccnc2C)c1 (configuration not stated)	-19.44	-21.33
CC(=O)N1CCN(C(=O)C2SCCc3sccc32)CC1 (configuration not stated)	-2.896	-15.25
Cc1ccc(C2CCCCCN2C(=O)Nc2cn[nH]c2)o1 (configuration not stated)	6.109	-5.359
O=C(NCCc1ccccc1)NCC(O)c1cccc(F)c1 (configuration not stated)	0.7283	-1.327
CN(CCC(=O)N1CCCC(Cc2cccnc2)C1)Cc1cccnc1 (configuration not stated)	-14.37	24.22
COCCC(=O)N1CCOCC(Cc2ccc3c(ccn3C)c2)C1 (configuration not stated)	-8.518	1.181
CNS(=O)(=O)c1cccc(C(C)NCc2cccc(C)c2C)c1 (configuration not stated)	0.3377	-10.07
CCOc1c(F)cccc1C(=O)N(c1cccnc1)C(C)C	-9.636	5.331
CCN(c1ccc(C(=O)N2CCC(C)CC2)cc1)S(=O)(=O)CC	-8.799	-3.403
COC(=O)c1c(Cl)c(C2CC2)nc2onc(C)c12	-12.21	-7.124
COc1ccc(CNCc2cn(C)nc2C)cc1	-0.6336	21.88
CN(C)C(=O)Cn1c(C2CC2)c(CN2CCSCC2)c2cccnc21	-13.27	13.11
c1ccc(-c2nc(CN3CCCC(Cn4cncn4)C3)co2)cc1 (configuration not stated)	12.05	-24.51
CC(C)Cn1c2c(ccc1=O)CC(NC(=O)c1ccsc1)CC2 (configuration not stated)	-1.147	-9.067
COCC(=O)N1C[C@H]2CN(Cc3cccc(F)c3)C(=O)[C@H]2C1	2.95	-9.709
CCc1cccc(N2CCC(NC(=O)c3ccco3)CC2)c1	-2.477	-3.514
Cc1nc(S(=O)(=O)CCn2cccn2)n(C2CCCC2)c1C	-4.252	-33.32
Cc1cc2cc(NC(=O)Cn3ncc(N4CCCC4)cc3=O)ccc2o1	-22.34	20.76
N#CCc1ccc(NC(=O)Cn2cc(I)cn2)cc1	-15.13	7.579
O=C(O)[C@H]1CN(Cc2ccccc2)C[C@@H]1C(=O)c1ccccc1	-8.04	0.4856
CN(CCc1ncnn1C1Cc2ccccc2C1)C1CCS(=O)(=O)C1 (configuration not stated)	-13.96	-9.246
COC1CN(C(=O)OCC(C)C)CCC(=O)N(C)c2ccccc21 (configuration not stated)	3.71	0.7637
COCCn1ccc2ccc(NC(=O)NCc3noc(C)n3)cc21	-2.525	9.823
CCOc1ccc(CC(=O)N2CCN(c3nccn3C)CC2)cc1	-2.564	-0.9536
NCc1cn(-c2ccccc2C(=O)NCc2ccccc2Cl)cn1	17.77	16.1
O=C(Nc1cccnc1)N(Cc1ccccc1)C1CC1	-2.943	-14.97
OC1(CN2CCOC(CNc3cccnn3)C2)CCCCC1 (configuration not stated)	-10.4	-10.99
Cc1nsc(C(=O)NCCc2ccc(F)cc2)n1	-9.252	-12.92
O=C(c1ccc2[nH]ccc2c1)N1CCCCC1c1nc[nH]n1 (configuration not stated)	-7.687	-23.98
CC(c1ncc(-c2ccccc2)o1)N1CCN(C(=O)C(C)(C)C)CC1 (configuration not stated)	-18.46	1.194

Some entries from above, unchanged:

* Cc1cccc(CO[C@H]2CO[C@@]3(CCN(S(=O)(=O)N(C)C)C3)C2)n1 | A: -1.914%; B: -8.028%
* Cc1cncc(C2CCCN2CC(N)=O)n1 (configuration not stated) | A: -13.33%; B: 12.77%
* O=C(c1ccc2[nH]ccc2c1)N1CCCCC1c1nc[nH]n1 (configuration not stated) | A: -7.687%; B: -23.98%
* COCCNC(=O)Cn1c(-c2cccc(Cl)c2)nc(C)c(CCO)c1=O | A: 5.221%; B: -16.13%
* COC1CN(C(=O)OCC(C)C)CCC(=O)N(C)c2ccccc21 (configuration not stated) | A: 3.71%; B: 0.7637%

Measurements from “University of Dundee, Small-Polar-MMV Screening Library” (2021), ChEMBL document CHEMBL3988442.